Measurements published in paper PMC5846801.
Results are given in words; binding and its absence hold for the method and conditions named. Binding can be weak; no strength is given.

By UniProt entry, the sequences of proteins in these tests, tags left out. Where a name states a change or a piece, a line headed by the entry shows the natural chain unless it says otherwise.
UniProt P15056: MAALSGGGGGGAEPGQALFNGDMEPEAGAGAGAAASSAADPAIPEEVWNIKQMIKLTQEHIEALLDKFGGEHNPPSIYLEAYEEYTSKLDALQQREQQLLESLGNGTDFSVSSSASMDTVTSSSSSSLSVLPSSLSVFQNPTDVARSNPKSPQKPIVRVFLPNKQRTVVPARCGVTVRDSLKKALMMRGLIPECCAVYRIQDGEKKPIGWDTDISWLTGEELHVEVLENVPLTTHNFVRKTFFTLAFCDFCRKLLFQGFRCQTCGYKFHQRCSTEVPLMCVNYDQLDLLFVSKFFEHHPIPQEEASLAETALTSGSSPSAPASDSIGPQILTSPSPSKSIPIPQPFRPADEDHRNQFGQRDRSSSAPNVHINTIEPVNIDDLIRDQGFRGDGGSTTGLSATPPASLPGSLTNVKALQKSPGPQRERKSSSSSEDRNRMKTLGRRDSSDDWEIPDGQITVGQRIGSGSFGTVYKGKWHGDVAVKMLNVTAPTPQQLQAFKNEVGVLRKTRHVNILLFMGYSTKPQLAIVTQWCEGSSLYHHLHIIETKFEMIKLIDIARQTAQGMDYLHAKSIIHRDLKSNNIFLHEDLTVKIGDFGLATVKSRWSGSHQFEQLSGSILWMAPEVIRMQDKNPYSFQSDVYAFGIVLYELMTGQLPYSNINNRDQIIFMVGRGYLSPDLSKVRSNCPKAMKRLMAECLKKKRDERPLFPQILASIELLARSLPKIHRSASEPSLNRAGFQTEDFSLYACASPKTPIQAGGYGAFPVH

How the values were obtained:
[1] = biological target: T1, Cdc37 phosphorylated on serine 13 (human) (UniProt Q16543); assay: SEC; ternary mixture: 15 μM kinase, 15 μM Cdc37, 30 μM Hsp90α (1:1:2), 15 min at 4 °C; Superdex 200 Increase, 25 mM Tris.Cl, 150 mM NaCl, 1 mM TCEP, pH 8.0, 4 °C; fractions by SDS-PAGE and ELISA; both purified
T1 sequence (chain, phosphoserine at 13): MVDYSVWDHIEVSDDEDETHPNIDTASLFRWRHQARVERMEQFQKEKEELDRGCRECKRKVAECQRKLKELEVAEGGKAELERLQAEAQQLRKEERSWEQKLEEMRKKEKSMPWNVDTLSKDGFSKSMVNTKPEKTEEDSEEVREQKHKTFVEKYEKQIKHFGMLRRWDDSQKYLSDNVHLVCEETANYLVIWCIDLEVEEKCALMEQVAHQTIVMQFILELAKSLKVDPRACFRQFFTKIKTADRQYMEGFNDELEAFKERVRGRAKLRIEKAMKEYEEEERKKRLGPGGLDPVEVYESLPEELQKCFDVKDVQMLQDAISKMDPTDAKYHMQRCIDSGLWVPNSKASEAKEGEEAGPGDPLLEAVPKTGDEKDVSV

[2] = biological target: T1, Cdc37 phosphorylated on serine 13 (human); assay: pull-down; 50 μg His-tagged Cdc37 immobilised on Talon resin; kinase added in 25 mM Tris.Cl, 150 mM NaCl, 1 mM TCEP, 0.1% Triton-X-100, pH 8.0, 4 °C, 1 h; Coomassie; both purified
[3] = biological target: T1, Cdc37 phosphorylated on serine 13 (human); assay: HDX-MS; protein of interest 5 μM alone or with 7.5 μM partner, 30 min on ice, 25 mM Tris.Cl pH 8.0, 150 mM NaCl, 1 mM TCEP; exchange 0.3 s to 300 s; both purified

binding [1]: binds
binding [2]: binds
binding [3]: binds
Substance: sB-Raf^V600E kinase domain (from UniProt P15056) (domain or fragment)
